From patent publication US20210309631A1, “SALT OF CYCLOHEXANE DERIVATIVE” (priority 2018, published 2021)
Further values from the same series stand in other lists.

Assay: In vivo individual difference analysis: individual plasma concentration versus time in rats (Example 8)
Set-up: species or system SD rats
Settings: intragastric 1 mg/kg
Procedure: Compound of Formula I and salts thereof (sulfate, hydrochloride salt, phosphate, maleate), supplied by Shanghai Jingxin Biopharmaceutical Co., Ltd. • Strain: SD rats; Gender: male; Body weight: about 250 grams; Source: shanghai Jiesijie Experimental Animal Co., Ltd Route: single intragastric administration; Capacity: measured in 10 mL/kg body weight Preparation: weighing appropriate amount of the free base or salt of the compound of Formula I, adding a small amount of 0.5% CMC-Na to grind, adding 0.5% CMC-Na to the volume. The concentration is measured as the base. 20 SD rats were divided into 5 groups with 4 rats in each group, fasted for 12 h and drank freely before administration. […] The blood was anticoagulated with 1% heparin, the plasma was separated by 8000 rpm centrifugation for 4 min and stored at -40° C. for testing. LC-MS/MS Method. Pharmacokinetic parameters after administration in rats were calculated using a non-compartmental model of DAS 2.0 software.

Structure (SMILES): CN(C)C(=O)N[C@H]1CC[C@H](CCN2CCN(c3cccc4ccsc34)CC2)CC1.O=C(O)/C=C\C(=O)O [Example 5, N′-[trans-4-[2-[7-(benzo[b]thiophene)-7-piperazinyl]ethyl]cyclohexyl]-N,N-dimethylurea]
- Plasma Concentrations of Compound of Formula I (0 h after administration, Mean ± SD): 0.000 ± 0.000 ng/mL
- Plasma Concentrations of Compound of Formula I (0 h after administration, rat 1♂): 0 ng/mL
- Plasma Concentrations of Compound of Formula I (0 h after administration, rat 2♂): 0 ng/mL
- Plasma Concentrations of Compound of Formula I (0 h after administration, rat 3♂): 0 ng/mL
- Plasma Concentrations of Compound of Formula I (0 h after administration, rat 4♂): 0 ng/mL
- Plasma Concentrations of Compound of Formula I (5 min after administration, Mean ± SD): 0.796 ± 0.244 ng/mL
- Plasma Concentrations of Compound of Formula I (5 min after administration, rat 1♂): 1.15 ng/mL
- Plasma Concentrations of Compound of Formula I (5 min after administration, rat 2♂): 0.643 ng/mL
- Plasma Concentrations of Compound of Formula I (5 min after administration, rat 3♂): 0.768 ng/mL
- Plasma Concentrations of Compound of Formula I (5 min after administration, rat 4♂): 0.624 ng/mL
- Plasma Concentrations of Compound of Formula I (0.167 h after administration, Mean ± SD): 13.8 ± 4.14 ng/mL
- Plasma Concentrations of Compound of Formula I (0.167 h after administration, rat 1♂): 14.5 ng/mL
- Plasma Concentrations of Compound of Formula I (0.167 h after administration, rat 2♂): 17.9 ng/mL
- Plasma Concentrations of Compound of Formula I (0.167 h after administration, rat 3♂): 8.05 ng/mL
- Plasma Concentrations of Compound of Formula I (0.167 h after administration, rat 4♂): 14.8 ng/mL
- Plasma Concentrations of Compound of Formula I (0.333 h after administration, Mean ± SD): 40.4 ± 2.89 ng/mL
- Plasma Concentrations of Compound of Formula I (0.333 h after administration, rat 1♂): 41.2 ng/mL
- Plasma Concentrations of Compound of Formula I (0.333 h after administration, rat 2♂): 43.9 ng/mL
- Plasma Concentrations of Compound of Formula I (0.333 h after administration, rat 3♂): 37.1 ng/mL
- Plasma Concentrations of Compound of Formula I (0.333 h after administration, rat 4♂): 39.3 ng/mL
- Plasma Concentrations of Compound of Formula I (0.5 h after administration, Mean ± SD): 44.8 ± 3.38 ng/mL
- Plasma Concentrations of Compound of Formula I (0.5 h after administration, rat 1♂): 47.4 ng/mL
- Plasma Concentrations of Compound of Formula I (0.5 h after administration, rat 2♂): 47.7 ng/mL
- Plasma Concentrations of Compound of Formula I (0.5 h after administration, rat 3♂): 43.6 ng/mL
- Plasma Concentrations of Compound of Formula I (0.5 h after administration, rat 4♂): 40.6 ng/mL
- Plasma Concentrations of Compound of Formula I (1 h after administration, Mean ± SD): 43.9 ± 1.48 ng/mL
- Plasma Concentrations of Compound of Formula I (1 h after administration, rat 1♂): 45.0 ng/mL
- Plasma Concentrations of Compound of Formula I (1 h after administration, rat 2♂): 44.1 ng/mL
- Plasma Concentrations of Compound of Formula I (1 h after administration, rat 3♂): 44.6 ng/mL
- Plasma Concentrations of Compound of Formula I (1 h after administration, rat 4♂): 41.7 ng/mL
- Plasma Concentrations of Compound of Formula I (2 h after administration, Mean ± SD): 23.3 ± 2.90 ng/mL
- Plasma Concentrations of Compound of Formula I (2 h after administration, rat 1♂): 24.4 ng/mL
- Plasma Concentrations of Compound of Formula I (2 h after administration, rat 2♂): 21.8 ng/mL
- Plasma Concentrations of Compound of Formula I (2 h after administration, rat 3♂): 26.7 ng/mL
- Plasma Concentrations of Compound of Formula I (2 h after administration, rat 4♂): 20.1 ng/mL
- Plasma Concentrations of Compound of Formula I (4 h after administration, Mean ± SD): 7.74 ± 0.640 ng/mL
- Plasma Concentrations of Compound of Formula I (4 h after administration, rat 1♂): 8.41 ng/mL
- Plasma Concentrations of Compound of Formula I (4 h after administration, rat 2♂): 7.03 ng/mL
- Plasma Concentrations of Compound of Formula I (4 h after administration, rat 3♂): 7.39 ng/mL
- Plasma Concentrations of Compound of Formula I (4 h after administration, rat 4♂): 8.13 ng/mL
- Plasma Concentrations of Compound of Formula I (6 h after administration, Mean ± SD): 2.77 ± 0.330 ng/mL
- Plasma Concentrations of Compound of Formula I (6 h after administration, rat 1♂): 3.17 ng/mL
- Plasma Concentrations of Compound of Formula I (6 h after administration, rat 2♂): 2.38 ng/mL
- Plasma Concentrations of Compound of Formula I (6 h after administration, rat 3♂): 2.67 ng/mL
- Plasma Concentrations of Compound of Formula I (6 h after administration, rat 4♂): 2.84 ng/mL
- Plasma Concentrations of Compound of Formula I (9 h after administration, Mean ± SD): 1.18 ± 0.199 ng/mL
- Plasma Concentrations of Compound of Formula I (9 h after administration, rat 1♂): 1.32 ng/mL
- Plasma Concentrations of Compound of Formula I (9 h after administration, rat 2♂): 1.02 ng/mL
- Plasma Concentrations of Compound of Formula I (9 h after administration, rat 3♂): 0.998 ng/mL
- Plasma Concentrations of Compound of Formula I (9 h after administration, rat 4♂): 1.38 ng/mL
- Plasma Concentrations of Compound of Formula I (12 h after administration, Mean ± SD): 0.720 ± 0.244 ng/mL
- Plasma Concentrations of Compound of Formula I (12 h after administration, rat 1♂): 0.835 ng/mL
- Plasma Concentrations of Compound of Formula I (12 h after administration, rat 2♂): 0.637 ng/mL
- Plasma Concentrations of Compound of Formula I (12 h after administration, rat 3♂): 0.423 ng/mL
- Plasma Concentrations of Compound of Formula I (12 h after administration, rat 4♂): 0.985 ng/mL
- Plasma Concentrations of Compound of Formula I (24 h after administration, Mean ± SD): 0.186 ± 0.0899 ng/mL
- Plasma Concentrations of Compound of Formula I (24 h after administration, rat 1♂): 0.313 ng/mL
- Plasma Concentrations of Compound of Formula I (24 h after administration, rat 2♂): 0.101 ng/mL
- Plasma Concentrations of Compound of Formula I (24 h after administration, rat 3♂): 0.170 ng/mL
- Plasma Concentrations of Compound of Formula I (24 h after administration, rat 4♂): 0.161 ng/mL
